Data from the supplement of paper PMC12067093, “Discovery and optimisation of a covalent ligand for TRIM25 and its application to targeted protein ubiquitination” (Chemical Science, 2025).
Some of the results follow.

Protein sequences, listed by entry. Tags and fused reporters are not part of them. Lines headed by an entry give the natural chain unless they say otherwise; changes in a name come on top.
UniProt P49643: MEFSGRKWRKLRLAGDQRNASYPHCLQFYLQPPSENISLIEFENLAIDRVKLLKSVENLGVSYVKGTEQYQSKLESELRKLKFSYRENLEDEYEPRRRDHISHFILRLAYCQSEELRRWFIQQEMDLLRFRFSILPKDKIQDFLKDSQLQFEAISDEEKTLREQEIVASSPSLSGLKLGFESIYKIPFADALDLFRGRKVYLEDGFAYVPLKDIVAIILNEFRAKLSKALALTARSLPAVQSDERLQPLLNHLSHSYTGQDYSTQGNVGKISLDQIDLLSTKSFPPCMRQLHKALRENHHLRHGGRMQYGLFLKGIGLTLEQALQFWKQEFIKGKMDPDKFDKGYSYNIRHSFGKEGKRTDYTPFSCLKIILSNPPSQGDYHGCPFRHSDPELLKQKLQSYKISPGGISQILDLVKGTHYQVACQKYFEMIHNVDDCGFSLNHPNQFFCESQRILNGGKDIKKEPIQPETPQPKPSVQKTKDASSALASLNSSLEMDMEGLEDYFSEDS
UniProt O43172: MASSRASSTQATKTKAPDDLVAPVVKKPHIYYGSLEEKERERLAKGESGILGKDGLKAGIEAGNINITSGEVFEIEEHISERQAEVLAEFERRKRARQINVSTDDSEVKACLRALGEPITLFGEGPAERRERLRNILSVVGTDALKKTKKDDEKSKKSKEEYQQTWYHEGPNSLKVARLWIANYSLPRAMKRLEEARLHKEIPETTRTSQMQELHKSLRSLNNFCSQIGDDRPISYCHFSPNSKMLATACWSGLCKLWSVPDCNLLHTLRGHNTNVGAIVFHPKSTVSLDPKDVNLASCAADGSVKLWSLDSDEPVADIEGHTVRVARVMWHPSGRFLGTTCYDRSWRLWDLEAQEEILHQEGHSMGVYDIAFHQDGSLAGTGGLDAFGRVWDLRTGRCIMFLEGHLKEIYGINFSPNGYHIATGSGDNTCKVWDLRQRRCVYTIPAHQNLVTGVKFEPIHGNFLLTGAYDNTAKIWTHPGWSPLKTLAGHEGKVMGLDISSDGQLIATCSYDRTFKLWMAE
UniProt P78527, whole entry, looked up: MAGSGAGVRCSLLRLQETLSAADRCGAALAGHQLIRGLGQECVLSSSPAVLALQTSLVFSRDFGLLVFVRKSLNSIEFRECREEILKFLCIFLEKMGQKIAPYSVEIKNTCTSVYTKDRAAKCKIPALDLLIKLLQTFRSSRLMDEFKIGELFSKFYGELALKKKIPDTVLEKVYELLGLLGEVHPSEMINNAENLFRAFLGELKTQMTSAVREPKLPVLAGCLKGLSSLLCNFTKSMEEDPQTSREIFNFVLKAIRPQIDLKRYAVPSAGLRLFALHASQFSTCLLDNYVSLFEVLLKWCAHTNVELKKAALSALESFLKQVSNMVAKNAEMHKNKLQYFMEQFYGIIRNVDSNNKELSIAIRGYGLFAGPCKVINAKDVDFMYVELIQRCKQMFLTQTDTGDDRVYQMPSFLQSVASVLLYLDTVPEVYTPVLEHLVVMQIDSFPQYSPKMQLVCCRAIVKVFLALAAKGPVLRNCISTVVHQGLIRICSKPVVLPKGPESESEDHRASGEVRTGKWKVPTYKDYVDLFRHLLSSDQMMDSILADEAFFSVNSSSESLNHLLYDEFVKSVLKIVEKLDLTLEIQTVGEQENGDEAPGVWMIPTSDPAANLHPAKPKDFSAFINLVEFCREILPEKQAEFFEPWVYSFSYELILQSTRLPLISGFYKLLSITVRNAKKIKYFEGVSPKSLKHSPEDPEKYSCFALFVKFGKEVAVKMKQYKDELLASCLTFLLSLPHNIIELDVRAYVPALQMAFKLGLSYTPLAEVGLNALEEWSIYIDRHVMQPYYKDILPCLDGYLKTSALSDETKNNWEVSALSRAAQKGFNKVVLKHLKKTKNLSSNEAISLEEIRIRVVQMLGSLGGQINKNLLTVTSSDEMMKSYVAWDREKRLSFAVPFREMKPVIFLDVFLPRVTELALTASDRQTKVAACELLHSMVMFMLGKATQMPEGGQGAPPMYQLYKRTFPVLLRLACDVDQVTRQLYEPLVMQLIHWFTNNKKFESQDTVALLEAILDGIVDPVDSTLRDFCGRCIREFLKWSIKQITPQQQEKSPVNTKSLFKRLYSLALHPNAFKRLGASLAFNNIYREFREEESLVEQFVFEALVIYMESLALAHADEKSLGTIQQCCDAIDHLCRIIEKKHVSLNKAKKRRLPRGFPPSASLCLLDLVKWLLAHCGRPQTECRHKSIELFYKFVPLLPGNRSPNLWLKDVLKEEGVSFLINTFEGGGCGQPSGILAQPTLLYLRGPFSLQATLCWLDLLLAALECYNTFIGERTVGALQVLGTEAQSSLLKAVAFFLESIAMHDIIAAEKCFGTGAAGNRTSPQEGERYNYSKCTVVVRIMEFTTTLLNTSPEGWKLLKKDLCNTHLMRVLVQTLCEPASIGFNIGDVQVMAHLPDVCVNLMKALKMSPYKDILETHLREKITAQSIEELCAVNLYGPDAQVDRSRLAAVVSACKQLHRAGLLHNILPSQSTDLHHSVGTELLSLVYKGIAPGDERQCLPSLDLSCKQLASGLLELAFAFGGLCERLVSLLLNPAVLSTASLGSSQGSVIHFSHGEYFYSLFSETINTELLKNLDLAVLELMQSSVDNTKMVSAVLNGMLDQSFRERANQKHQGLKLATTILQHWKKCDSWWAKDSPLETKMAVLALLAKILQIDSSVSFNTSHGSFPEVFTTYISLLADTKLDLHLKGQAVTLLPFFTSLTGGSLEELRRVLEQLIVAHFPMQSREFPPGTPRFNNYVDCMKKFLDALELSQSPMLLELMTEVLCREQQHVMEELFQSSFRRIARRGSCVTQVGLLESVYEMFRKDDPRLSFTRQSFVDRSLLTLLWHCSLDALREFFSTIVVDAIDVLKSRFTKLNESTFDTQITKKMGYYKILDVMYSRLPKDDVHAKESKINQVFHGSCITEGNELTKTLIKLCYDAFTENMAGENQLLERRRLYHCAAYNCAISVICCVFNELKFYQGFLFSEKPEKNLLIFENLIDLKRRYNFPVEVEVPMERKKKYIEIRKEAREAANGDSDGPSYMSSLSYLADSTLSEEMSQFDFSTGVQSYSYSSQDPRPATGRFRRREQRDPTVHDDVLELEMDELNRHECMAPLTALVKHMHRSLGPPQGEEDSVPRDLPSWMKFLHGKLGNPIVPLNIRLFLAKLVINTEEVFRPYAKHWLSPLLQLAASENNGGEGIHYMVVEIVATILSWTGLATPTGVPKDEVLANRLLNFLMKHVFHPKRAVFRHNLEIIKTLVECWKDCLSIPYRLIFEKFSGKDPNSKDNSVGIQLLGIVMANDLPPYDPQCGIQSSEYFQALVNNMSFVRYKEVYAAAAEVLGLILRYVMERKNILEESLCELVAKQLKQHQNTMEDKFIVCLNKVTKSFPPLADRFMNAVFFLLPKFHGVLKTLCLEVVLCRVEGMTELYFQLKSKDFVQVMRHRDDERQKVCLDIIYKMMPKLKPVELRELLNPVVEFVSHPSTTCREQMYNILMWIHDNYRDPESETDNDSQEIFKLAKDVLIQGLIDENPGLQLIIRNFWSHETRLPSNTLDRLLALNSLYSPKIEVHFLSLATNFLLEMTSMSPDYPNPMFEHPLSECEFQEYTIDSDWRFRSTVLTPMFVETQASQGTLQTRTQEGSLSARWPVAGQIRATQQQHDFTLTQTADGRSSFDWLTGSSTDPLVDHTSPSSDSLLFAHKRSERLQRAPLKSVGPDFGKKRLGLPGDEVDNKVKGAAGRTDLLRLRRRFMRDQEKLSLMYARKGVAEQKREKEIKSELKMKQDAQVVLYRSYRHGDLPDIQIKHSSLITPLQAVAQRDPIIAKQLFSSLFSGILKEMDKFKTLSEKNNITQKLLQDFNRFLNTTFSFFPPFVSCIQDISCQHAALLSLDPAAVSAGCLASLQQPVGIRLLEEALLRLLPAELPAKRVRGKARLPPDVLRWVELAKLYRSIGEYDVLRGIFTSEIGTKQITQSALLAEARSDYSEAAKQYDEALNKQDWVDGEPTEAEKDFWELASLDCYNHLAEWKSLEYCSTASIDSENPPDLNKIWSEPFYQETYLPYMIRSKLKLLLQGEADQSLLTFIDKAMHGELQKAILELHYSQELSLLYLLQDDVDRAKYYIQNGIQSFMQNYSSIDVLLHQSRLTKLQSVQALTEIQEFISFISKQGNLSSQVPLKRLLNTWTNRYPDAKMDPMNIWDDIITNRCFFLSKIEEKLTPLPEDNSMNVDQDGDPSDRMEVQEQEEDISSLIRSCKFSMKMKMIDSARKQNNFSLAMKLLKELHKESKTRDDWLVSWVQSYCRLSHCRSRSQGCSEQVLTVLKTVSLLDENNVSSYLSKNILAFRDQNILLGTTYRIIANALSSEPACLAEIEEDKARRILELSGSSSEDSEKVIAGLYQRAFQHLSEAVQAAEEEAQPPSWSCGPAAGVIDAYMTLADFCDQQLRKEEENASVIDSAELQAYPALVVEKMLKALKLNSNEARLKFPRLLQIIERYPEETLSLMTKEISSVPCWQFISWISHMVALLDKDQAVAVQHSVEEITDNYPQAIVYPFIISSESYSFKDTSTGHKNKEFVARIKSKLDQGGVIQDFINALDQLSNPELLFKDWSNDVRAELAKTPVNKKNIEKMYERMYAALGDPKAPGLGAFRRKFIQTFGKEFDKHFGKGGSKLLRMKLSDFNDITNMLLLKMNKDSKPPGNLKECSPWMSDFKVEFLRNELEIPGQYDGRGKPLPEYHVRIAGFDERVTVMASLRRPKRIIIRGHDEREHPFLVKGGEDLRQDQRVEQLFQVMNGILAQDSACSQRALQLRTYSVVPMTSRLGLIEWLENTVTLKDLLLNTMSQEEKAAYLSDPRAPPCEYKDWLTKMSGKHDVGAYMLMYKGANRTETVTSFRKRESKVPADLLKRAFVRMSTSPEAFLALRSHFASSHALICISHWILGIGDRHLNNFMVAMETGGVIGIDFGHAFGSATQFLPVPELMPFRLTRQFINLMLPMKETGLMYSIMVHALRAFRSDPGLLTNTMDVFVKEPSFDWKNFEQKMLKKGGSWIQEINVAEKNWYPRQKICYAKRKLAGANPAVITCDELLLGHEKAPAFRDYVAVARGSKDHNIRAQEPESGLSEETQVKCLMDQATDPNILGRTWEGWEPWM
UniProt Q05655: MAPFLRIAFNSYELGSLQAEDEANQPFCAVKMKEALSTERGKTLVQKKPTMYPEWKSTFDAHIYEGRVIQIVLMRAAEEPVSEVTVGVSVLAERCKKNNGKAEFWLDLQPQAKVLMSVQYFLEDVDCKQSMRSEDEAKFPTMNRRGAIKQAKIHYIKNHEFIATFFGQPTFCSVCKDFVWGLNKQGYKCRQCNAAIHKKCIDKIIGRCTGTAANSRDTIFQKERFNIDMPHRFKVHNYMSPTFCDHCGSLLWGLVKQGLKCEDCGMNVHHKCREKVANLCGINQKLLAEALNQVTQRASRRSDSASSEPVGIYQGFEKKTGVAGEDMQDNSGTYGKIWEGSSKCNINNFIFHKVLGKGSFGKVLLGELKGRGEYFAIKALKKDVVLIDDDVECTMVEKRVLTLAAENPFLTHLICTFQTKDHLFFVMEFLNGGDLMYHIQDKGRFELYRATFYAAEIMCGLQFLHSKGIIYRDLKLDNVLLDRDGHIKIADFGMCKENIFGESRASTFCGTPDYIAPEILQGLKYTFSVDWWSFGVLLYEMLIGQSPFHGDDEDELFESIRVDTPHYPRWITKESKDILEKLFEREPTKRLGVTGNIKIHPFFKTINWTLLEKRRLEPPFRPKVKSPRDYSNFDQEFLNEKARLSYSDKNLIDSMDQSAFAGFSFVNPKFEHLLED
UniProt O14744, whole entry, looked up: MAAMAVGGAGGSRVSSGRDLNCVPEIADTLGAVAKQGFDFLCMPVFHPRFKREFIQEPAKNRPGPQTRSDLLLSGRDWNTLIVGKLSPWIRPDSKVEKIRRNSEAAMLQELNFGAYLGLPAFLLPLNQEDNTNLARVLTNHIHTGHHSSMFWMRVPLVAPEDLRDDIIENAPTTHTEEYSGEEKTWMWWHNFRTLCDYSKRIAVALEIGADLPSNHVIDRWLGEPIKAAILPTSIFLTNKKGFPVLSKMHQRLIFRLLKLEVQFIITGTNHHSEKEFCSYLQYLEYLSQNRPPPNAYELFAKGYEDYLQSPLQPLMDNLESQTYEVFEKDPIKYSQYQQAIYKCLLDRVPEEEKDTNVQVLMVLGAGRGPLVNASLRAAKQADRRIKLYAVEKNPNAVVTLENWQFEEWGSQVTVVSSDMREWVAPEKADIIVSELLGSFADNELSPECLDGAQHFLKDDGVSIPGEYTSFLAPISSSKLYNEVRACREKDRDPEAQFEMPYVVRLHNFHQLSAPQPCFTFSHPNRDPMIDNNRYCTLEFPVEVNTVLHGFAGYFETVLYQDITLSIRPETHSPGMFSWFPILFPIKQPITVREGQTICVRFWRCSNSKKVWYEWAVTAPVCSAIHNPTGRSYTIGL

Compound: CC1Cc2ccccc2N1C(=O)C1CCCN(C1)C(=O)CCl (mixture of isomers) [TRIM25 ligand 11 (diastereomer mixture)]
Experiment: probe-labelled cysteine peptide fold change vs DMSO (competition) (log2 fold change); higher = less target engagement (more negative = stronger competition)
Settings: THP-1, incubation time: 4 h
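Further: competitive chemoproteomic profiling in live THP-1 cells with an iodoacetamide desthiobiotin (IA-DTB) probe, comparing probe-labelled peptide intensities in compound-treated cells against DMSO-treated controls.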

Row | Target | probe-labelled cysteine peptide fold change (10 µM) | probe-labelled cysteine peptide fold change (50 µM)
1 | PRKD2_Q9BZL6_861_DLGGACPPQDHDMQGLAER (UniProt Q9BZL6) | 0.135 | -0.132
2 | PREX1_Q8TCU6_52_LCVLNEILGTERDYVGTLR (UniProt Q8TCU6) | -0.286 | -0.113
3 | PRIM2_P49643_424_GTHYQVACQK (UniProt P49643) | -0.0111 | 0.00742
4 | PRKAR1A_P10644_18_SLRECELYVQK (UniProt P10644) | -0.229 | -0.353
5 | PRPF4_O43172_237_SLNNFCSQIGDDRPISYCHFSPNSK (UniProt O43172) | 0.0327 | -0.552
6 | PRPF40A_O75400_580_EDALICFEEHIR (UniProt O75400) | 0.133 | 0.0442
7 | PRKDC_P78527_1135_SLGTIQQCCDAIDHLCR (UniProt P78527) | 0.101 | 0.0684
8 | PRR12_Q9ULL5_112_FVPLTSICFPDSLLQDEER (UniProt Q9ULL5) | -0.151 | 0.122
9 | PREX1_Q8TCU6_972_QAPLEPHPLCGLDFCPTNCHINLMEVSYPK (UniProt Q8TCU6) | -0.0924 | -0.159
10 | PRMT7_Q9NVM4_136_HSTEVTVGPEGDMPCR (UniProt Q9NVM4) | -0.0661 | -0.198
11 | PRKDC_P78527_974_LACDVDQVTR (UniProt P78527) | 0.122 | 0.195
12 | PRPS2_P11908_165_NCIIVSPDAGGAKR (UniProt P11908) | -0.00324 | 0.104
13 | PRKCD_Q05655_393_DVVLIDDDVECTMVEK (UniProt Q05655) | 0.0846 | 0.00931
14 | PRPS1_P60891_165_NCTIVSPDAGGAK (UniProt P60891) | -0.0609 | 0.152
15 | PRMT1_Q99873-3_15_AAAEAANCIMEVSCGQAESSEKPNAEDMTSK (UniProt Q99873) | -0.221 | 0.0812
16 | PRKCD_Q05655_172_NHEFIATFFGQPTFCSVCK (UniProt Q05655) | -0.042 | 0.0379
17 | PRMT1_Q99873_119_KVIGIECSSISDYAVK (UniProt Q99873) | -0.0063 | 0.0865
18 | PRPF4_O43172_299_DVNLASCAADGSVK (UniProt O43172) | -0.0227 | -0.0888
19 | PROSER1_Q86XN7_139_APHAMISSCGTIPGNPYPK (UniProt Q86XN7) | -0.216 | -0.297

Row | Target | probe-labelled cysteine peptide fold change (10 µM) | probe-labelled cysteine peptide fold change (50 µM)
20 | PRKCI_P41743_137_LYCANGHTFQAK (UniProt P41743) | 0.129 | 0.201
21 | PRKDC_P78527_1176_WLLAHCGR (UniProt P78527) | -0.0497 | 0.244
22 | PRMT3_O60678_363_GGSVYPDICTISLVAVSDVNK (UniProt O60678) | 0.0998 | 0.415
23 | PRMT1_Q99873_360_GQLCELSCSTDYR (UniProt Q99873) | 0.0677 | 0.0837
24 | PRMT1_Q99873_119_VIGIECSSISDYAVK (UniProt Q99873) | 0.125 | 0.262
25 | PRKDC_P78527_1791_GSCVTQVGLLESVYEMFR (UniProt P78527) | -0.0458 | -0.0224
26 | PRUNE1_Q86TP1_303_QLAIFCPHVALQTTICEVLER (UniProt Q86TP1) | -0.049 | 0.0158
27 | PRKDC_P78527_3683_ECSPWMSDFKVEFLR (UniProt P78527) | -0.518 | -0.397
28 | PRIM1_P49642_354_VDQFDPFTVPTISFICR (UniProt P49642) | -0.16 | -0.163
29 | PRKAB2_O43741_225_DTNISCDPALLPEPNHVMLNHLYALSIK (UniProt O43741) | -0.0811 | 0.0742
30 | PRKDC_P78527_2363_FIVCLNK (UniProt P78527) | 0.162 | 0.0982
31 | PRMT5_O14744_22_DLNCVPEIADTLGAVAK (UniProt O14744) | 0.034 | -0.0764
32 | PRMT1_Q99873_103_DKVVLDVGSGTGILCMFAAK (UniProt Q99873) | -0.241 | 0.142
33 | PRIM2_P49643_449_YFEMIHNVDDCGFSLNHPNQFFCESQR (UniProt P49643) | -0.206 | -0.135
34 | PRPF6_O94906_901_CESAEPR (UniProt O94906) | -0.174 | -0.148
35 | PRMT5_O14744_518_LHNFHQLSAPQPCFTFSHPNR (UniProt O14744) | -0.101 | 0.0378
36 | PRTN3_P24158_56_GNPGSHFCGGTLIHPSFVLTAAHCLR (UniProt P24158) | -0.0261 | -0.123
37 | PRKCQ_Q04759_193_QCNAAIHKK (UniProt Q04759) | -0.181 | -0.216
38 | PRPS1_P60891_41_KFSNQETCVEIGESVR (UniProt P60891) | 0.239 | 0.134

Already shown: entries from further up.
Row | Target | probe-labelled cysteine peptide fold change (10 µM) | probe-labelled cysteine peptide fold change (50 µM)
25 | PRKDC_P78527_1791_GSCVTQVGLLESVYEMFR (UniProt P78527) | -0.0458 | -0.0224
26 | PRUNE1_Q86TP1_303_QLAIFCPHVALQTTICEVLER (UniProt Q86TP1) | -0.049 | 0.0158
